According to PubChem BioAssay (NCATS):
The inconclusive results got no clear call from the source; some entries with a clear call stand among them for comparison. A potency beside an inconclusive call is a rough fit, not a confirmed value. Calls of active or inactive are those of the source. Calls come from the whole dose curve; as a rule, active = well fitted cell-killing curve with a large enough effect; inconclusive = small, poorly fitted or top-dose-only effect, or effect the other way; inactive = no such curve, though single readings can be large or run the other way.

What was measured:
[1] = Quantitative High-Throughput drug screen in 47 multiple myeloma cell lines against the NCATS MIPE library collection: MOLP8_DSMZ cell viability assay (AID 1918977); note: nearly all actives have a fitted effect of over 45% in size;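 for viability (% of control): 100% = DMSO-only wells and 0% = media-only wells without cells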
In short: (§1)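 qHTS format: cells plated (500/well), pin-dosed with MIPE 4.0 compounds, kept 48 h at 37 °C. Readout was CellTiter-Glo luminescence, median RLU.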

[2] = Quantitative High-Throughput drug screen in 47 multiple myeloma cell lines against the NCATS MIPE library collection: MM1R_ATCC cell viability assay (AID 1918981); note: nearly all actives have a fitted effect of over 35% in size
In short: as §1

[3] = Quantitative High-Throughput drug screen in 47 multiple myeloma cell lines against the NCATS MIPE library collection: LP1_DSMZ cell viability assay (AID 1918982); note: nearly all actives have a fitted effect of over 35% in size
In short: as §1

[4] = Quantitative High-Throughput drug screen in 47 multiple myeloma cell lines against the NCATS MIPE library collection: KMS28PE_JCRB cell viability assay (AID 1918983); note: nearly all actives have a fitted effect of over 35% in size
In short: as §1

[5] = Quantitative High-Throughput drug screen in 47 multiple myeloma cell lines against the NCATS MIPE library collection: L363_DSMZ cell viability assay (AID 1918984); conditions: L363 myeloma viability, CellTiter-Glo ATP luminescence, 48 h; viability (% of control): at 45.8 µM (top of the series); note: nearly all actives have a fitted effect of over 40% in size
In short: as §1

[6] = Quantitative High-Throughput drug screen in 47 multiple myeloma cell lines against the NCATS MIPE library collection: OCIMY7_PLB cell viability assay (AID 1918987); conditions: OCI-MY7 myeloma viability, CellTiter-Glo ATP, 48 h; viability (% of DMSO): at 45.8 µM unless noted; note: nearly all actives have a fitted effect of over 65% in size
In short: as §1

[7] = Quantitative High-Throughput drug screen in 47 multiple myeloma cell lines against the NCATS MIPE library collection: U266_ATCC cell viability assay (AID 1919864); note: nearly all actives have a fitted effect of over 35% in size;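 for viability (% of DMSO control): 0% = media-only wells without cells and 100% = DMSO-only wells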
In short: as §1

[8] = Quantitative High-Throughput drug screen in 47 multiple myeloma cell lines against the NCATS MIPE library collection: VP6_DJ cell viability assay (AID 1919867); conditions: ATP luminescence, 48 h; viability (% of DMSO): at 45.8 µM; note: nearly all actives have a fitted effect of over 40% in size;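 for viability (% of DMSO): 100% = DMSO-only wells and 0% = wells with media alone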
In short: as §1

[9] = Quantitative High-Throughput drug screen in 47 multiple myeloma cell lines against the NCATS MIPE library collection: PE2_PLB cell viability assay (AID 1919869); conditions: PE2_PLB myeloma cells viability, ATP luminescence, 48 h; viability (% of control): at 45.8 µM; note: nearly all actives have a fitted effect of over 35% in size;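 for viability (% of control): 100% = DMSO-only wells and 0% = cell-free media-only wells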
In short: as §1

[10] = Quantitative High-Throughput drug screen in 47 multiple myeloma cell lines against the NCATS MIPE library collection: PCM6_Riken cell viability assay (AID 1919870); conditions: CellTiter-Glo ATP, 48 h; viability (% of control): at 45.8 µM; note: nearly all actives have a fitted effect of over 30% in size;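 for viability (% of control): 100% = DMSO-only wells and 0% = media-only wells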
In short: as §1

[11] = Quantitative High-Throughput drug screen in 47 multiple myeloma cell lines against the NCATS MIPE library collection: MM1S_ATCC cell viability assay (AID 1918980); note: nearly all actives have a fitted effect of over 45% in size
In short: as §1

[12] = Quantitative High-Throughput drug screen in 47 multiple myeloma cell lines against the NCATS MIPE library collection: KMS34_JCRB cell viability assay (AID 1918985); conditions: KMS34 myeloma viability, CellTiter-Glo ATP luminescence, 48 h; viability, percent of control: at 45.8 µM; note: nearly all actives have a fitted effect of over 40% in size;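 for viability, percent of control: 100% = DMSO-only wells and 0% = media-only wells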
In short: as §1

[13] = Quantitative High-Throughput drug screen in 47 multiple myeloma cell lines against the NCATS MIPE library collection: SKMM1_PLB cell viability assay (AID 1919863); conditions: SKMM1 myeloma viability, CellTiter-Glo ATP, 48 h; viability: active compounds read low; note: nearly all actives have a fitted effect of over 35% in size
In short: as §1

[14] = Quantitative High-Throughput drug screen in 47 multiple myeloma cell lines against the NCATS MIPE library collection: OCIMY5_PLB cell viability assay (AID 1918988); conditions: OCI-MY5 myeloma viability, ATP luminescence, 48 h; viability, % of control: at 45.8 µM; note: nearly all actives have a fitted effect of over 65% in size
In short: as §1

[15] = Quantitative High-Throughput drug screen in 47 multiple myeloma cell lines against the NCATS MIPE library collection: OPM1_PLB cell viability assay (AID 1918989); conditions: CellTiter-Glo, 48 h; viability (% of control): at 45.8 µM; note: nearly all actives have a fitted effect of over 40% in size;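 for viability (% of control): 100% = DMSO-only wells and 0% = media-only wells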
In short: as §1

[16] = Quantitative High-Throughput drug screen in 47 multiple myeloma cell lines against the NCATS MIPE library collection: XG6_PLB cell viability assay (AID 1919865); conditions: XG6 myeloma viability, CellTiter-Glo ATP luminescence, 48 h; viability (% of control): at 45.8 µM; note: nearly all actives have a fitted effect of over 40% in size;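 for viability (% of control): 100% = DMSO-only wells and 0% = media-only wells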
In short: as §1

[17] = Quantitative High-Throughput drug screen in 47 multiple myeloma cell lines against the NCATS MIPE library collection: XG1_PLB cell viability assay (AID 1919866); note: nearly all actives have a fitted effect of over 35% in size
In short: as §1

[18] = Quantitative High-Throughput drug screen in 47 multiple myeloma cell lines against the NCATS MIPE library collection: UTMC2_PLB cell viability assay (AID 1919868); conditions: CellTiter-Glo ATP luminescence, 48 h; viability (% of DMSO control): at 45.8 µM; note: nearly all actives have a fitted effect of over 55% in size;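 for viability (% of DMSO control): 100% = DMSO-only wells and 0% = media-only wells without cells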
In short: as §1

[19] = Quantitative High-Throughput drug screen in 47 multiple myeloma cell lines against the NCATS MIPE library collection: OCIMY1_PLB cell viability assay (AID 1918979); note: nearly all actives have a fitted effect of over 35% in size
In short: as §1
Potency is the fitted concentration of half-maximal effect.

CCC(C)(C)C(=O)O[C@H]1C[C@@H](C)C=C2C=C[C@H](C)[C@H](CC[C@@H]3C[C@@H](O)CC(=O)O3)[C@H]21
active: Potency [1] 13.2 µM | Potency [5] 13.2 µM | Potency [8] 16.6 µM
inconclusive: Potency [2] 16.6 µM [cytotoxic, partial curve] | Potency [3] 18.7 µM [cytotoxic, partial curve] | Potency [4] 33.2 µM [cytotoxic, single point] | Potency [6] 1.87 µM [cytotoxic, full curve, poor fit] | Potency [7] 13.2 µM [cytotoxic, partial curve, poor fit] | Potency [9] 16.6 µM [cytotoxic, partial curve] | Potency [10] 23.5 µM [cytotoxic, single point]

CCOC(=O)N1CCN([N+]([O-])=NOc2cc(ON=[N+]([O-])N3CCN(C(=O)OCC)CC3)c([N+](=O)[O-])cc2[N+](=O)[O-])CC1
active: Potency [1] 2.35 µM | Potency [11] 9.35 µM | Potency [4] 5.9 µM | Potency [13] 4.69 µM | Potency [7] 7.43 µM
inconclusive: Potency [5] 37.2 µM [cytotoxic, single point] | Potency [12] 9.35 µM [cytotoxic, partial curve, poor fit]

CC(C(=O)O)c1ccc2c(c1)CC(=O)c1ccccc1S2 (centres undefined)
inconclusive: Potency [2] 6.62 µM [rising, partial curve, poor fit] | Potency [6] 5.26 µM [rising, full curve, poor fit] | Potency [14] 6.62 µM [rising, single point] | Potency [13] 0.118 µM [rising, full curve, poor fit] | Potency [7] 2.35 µM [rising, partial curve, poor fit] | Potency [16] 2.35 µM [cytotoxic, full curve, poor fit] | Potency [17] 2.35 µM [cytotoxic, full curve, poor fit] | Potency [8] 1.48 µM [cytotoxic, full curve, poor fit] | Potency [18] 0.001 µM [cytotoxic] | Potency [10] 1.48 µM [cytotoxic, full curve, poor fit]
inactive: Potency [1] | Potency [4] | Potency [15] | Potency [9]

C#C[C@]1(O)CC[C@@H]2[C@@H]3CCC4=CC(=O)CC[C@@H]4[C@H]3CC[C@@]21CC
inconclusive: Potency [15] 0.0469 µM [rising, full curve] | Potency [13] 37.2 µM [cytotoxic, single point] | Potency [8] 0.0118 µM [rising, full curve, poor fit]
inactive: Potency [2] | Potency [3] | Potency [12] | Potency [6] | Potency [7] | Potency [18] | Potency [10]
active: Potency [1] 23.5 µM

OCCn1cc(-c2cnc3nnn(Cc4ccc5ncccc5c4)c3n2)cn1
active: Potency [11] 9.35 µM
inactive: Potency [3] | Potency [4] | Potency [5] | Potency [6] | Potency [16] | Potency [17] | Potency [18] | Potency [9] | Potency [10]
inconclusive: Potency [1] 14.8 µM [cytotoxic, partial curve, poor fit] | Potency [12] 0.0042 µM [cytotoxic, full curve, poor fit] | Potency [8] 0.0209 µM [rising, full curve, poor fit]

CNNCc1ccc(C(=O)NC(C)C)cc1
inconclusive: Potency [1] 16.6 µM [cytotoxic, partial curve, poor fit] | Potency [11] 20.9 µM [cytotoxic, partial curve, poor fit] | Potency [3] 2.64 µM [cytotoxic, partial curve, poor fit] | Potency [5] 14.8 µM [cytotoxic, partial curve, poor fit] | Potency [6] 0.0013 µM [rising, full curve, poor fit]
inactive: Potency [17] | Potency [8]
active: Potency [4] 13.2 µM

COc1cc2c(Oc3ccc4[nH]c(C)cc4c3F)ncnc2cc1OCCCN1CCCC1
active: Potency [11] 18.7 µM | Potency [2] 26.4 µM | Potency [17] 3.32 µM | Potency [8] 4.69 µM | Potency [18] 26.4 µM
inconclusive: Potency [1] 18.7 µM [cytotoxic, partial curve, poor fit] | Potency [3] 20.9 µM [cytotoxic, partial curve, poor fit] | Potency [5] 2.35 µM [cytotoxic, full curve, poor fit]

Cc1ccc(C(N)=O)cc1Nc1nccc(-c2cn(C(C)C)c3cnccc23)n1
active: Potency [1] 4.69 µM | Potency [2] 8.33 µM | Potency [3] 8.33 µM | Potency [10] 2.09 µM

Clc1ccc(Nc2nnc(Cc3ccncc3)c3ccccc23)cc1
active: Potency [3] 11.8 µM | Potency [8] 23.5 µM
inconclusive: Potency [1] 5.9 µM [cytotoxic, partial curve, poor fit] | Potency [2] 8.33 µM [cytotoxic, partial curve, poor fit] | Potency [15] 33.2 µM [cytotoxic, single point] | Potency [13] 0.0066 µM [cytotoxic, full curve, poor fit] | Potency [7] 14.8 µM [cytotoxic, partial curve, poor fit] | Potency [17] 2.35 µM [cytotoxic, full curve] | Potency [18] 16.6 µM [cytotoxic, partial curve, poor fit] | Potency [9] 18.7 µM [cytotoxic, partial curve]
inactive: Potency [5]

COC(=O)Nc1nc2ccc(C(=O)c3cccs3)cc2[nH]1
inconclusive: Potency [1] 1.48 µM [cytotoxic, partial curve, poor fit] | Potency [19] 0.0083 µM [cytotoxic, full curve, poor fit] | Potency [6] 0.148 µM [cytotoxic, full curve] | Potency [7] 0.118 µM [cytotoxic, full curve] | Potency [16] 0.0015 µM [cytotoxic, full curve] | Potency [17] 0.0012 µM [cytotoxic, full curve] | Potency [8] 0.0132 µM [cytotoxic, full curve] | Potency [10] 0.148 µM [cytotoxic, full curve]

COC1=C(OC)C(=O)C(CC=C(C)CCC=C(C)CCC=C(C)CCC=C(C)CCC=C(C)CCC=C(C)CCC=C(C)CCC=C(C)CCC=C(C)CCC=C(C)C)=C(C)C1=O
inconclusive: Potency [19] 0.003 µM [rising, full curve, poor fit] | Potency [5] 0.743 µM [rising, full curve, poor fit] | Potency [14] 0.148 µM [rising, full curve, poor fit] | Potency [7] 0.118 µM [rising, full curve, poor fit] | Potency [8] 2.64 µM [cytotoxic, full curve, poor fit]
inactive: Potency [1] | Potency [12] | Potency [6] | viability [13] 99.4% | Potency [16] | Potency [18] | Potency [10]

CCC1=C[C@@H]2CN(C1)Cc1c([nH]c3ccccc13)[C@@](C(=O)OC)(c1cc3c(cc1OC)N(C)[C@@H]1[C@@](O)(C(=O)OC)[C@H](OC(C)=O)[C@]4(CC)C=CCN5CC[C@]31[C@@H]54)C2
inconclusive: viability (% of control) [5] 11.4% [cytotoxic] | Potency [16] 0.0037 µM [cytotoxic, full curve, poor fit] | Potency [17] 0.0066 µM [cytotoxic, full curve, poor fit] | Potency [8] 0.0148 µM [cytotoxic, full curve, poor fit] | Potency [10] 0.0372 µM [cytotoxic, full curve, poor fit]
active: Potency [1] 0.0332 µM | Potency [2] 0.187 µM | Potency [3] 0.0332 µM | Potency [7] 14.8 µM

Cc1c(-c2cccc3c(CCCOc4cccc5ccccc45)c(C(=O)O)n(Cc4cccnc4)c23)c(COc2ccc(N3CCN([S+](=O)([O-])N(C)C)CC3)cc2)nn1C
inactive: Potency [5] | Potency [10]
active: Potency [11] 23.5 µM | Potency [3] 18.7 µM | Potency [18] 20.9 µM
inconclusive: Potency [1] 20.9 µM [cytotoxic, partial curve, poor fit] | Potency [2] 16.6 µM [cytotoxic, partial curve] | Potency [4] 29.6 µM [cytotoxic, single point] | Potency [12] 26.4 µM [cytotoxic, single point] | Potency [6] 3.32 µM [cytotoxic, full curve, poor fit] | Potency [14] 33.2 µM [cytotoxic, single point] | Potency [15] 33.2 µM [cytotoxic, single point] | Potency [7] 16.6 µM [cytotoxic, partial curve, poor fit] | Potency [16] 2.35 µM [cytotoxic, full curve, poor fit]

Two entries picked at random from those above:
CCC1=C[C@@H]2CN(C1)Cc1c([nH]c3ccccc13)[C@@](C(=O)OC)(c1cc3c(cc1OC)N(C)[C@@H]1[C@@](O)(C(=O)OC)[C@H](OC(C)=O)[C@]4(CC)C=CCN5CC[C@]31[C@@H]54)C2
inconclusive: viability (% of control) [5] 11.4% [cytotoxic] | Potency [16] 0.0037 µM [cytotoxic, full curve, poor fit] | Potency [17] 0.0066 µM [cytotoxic, full curve, poor fit] | Potency [8] 0.0148 µM [cytotoxic, full curve, poor fit] | Potency [10] 0.0372 µM [cytotoxic, full curve, poor fit]
active: Potency [1] 0.0332 µM | Potency [2] 0.187 µM | Potency [3] 0.0332 µM | Potency [7] 14.8 µM

Clc1ccc(Nc2nnc(Cc3ccncc3)c3ccccc23)cc1
active: Potency [3] 11.8 µM | Potency [8] 23.5 µM
inconclusive: Potency [1] 5.9 µM [cytotoxic, partial curve, poor fit] | Potency [2] 8.33 µM [cytotoxic, partial curve, poor fit] | Potency [15] 33.2 µM [cytotoxic, single point] | Potency [13] 0.0066 µM [cytotoxic, full curve, poor fit] | Potency [7] 14.8 µM [cytotoxic, partial curve, poor fit] | Potency [17] 2.35 µM [cytotoxic, full curve] | Potency [18] 16.6 µM [cytotoxic, partial curve, poor fit] | Potency [9] 18.7 µM [cytotoxic, partial curve]
inactive: Potency [5]
